Chains of the proteins cited; added tags and fusions are not shown. Chains listed by the source or under a name are the forms on record and can include a tag or linker. Residues count along the entry.
UniProt P02769, 25-607: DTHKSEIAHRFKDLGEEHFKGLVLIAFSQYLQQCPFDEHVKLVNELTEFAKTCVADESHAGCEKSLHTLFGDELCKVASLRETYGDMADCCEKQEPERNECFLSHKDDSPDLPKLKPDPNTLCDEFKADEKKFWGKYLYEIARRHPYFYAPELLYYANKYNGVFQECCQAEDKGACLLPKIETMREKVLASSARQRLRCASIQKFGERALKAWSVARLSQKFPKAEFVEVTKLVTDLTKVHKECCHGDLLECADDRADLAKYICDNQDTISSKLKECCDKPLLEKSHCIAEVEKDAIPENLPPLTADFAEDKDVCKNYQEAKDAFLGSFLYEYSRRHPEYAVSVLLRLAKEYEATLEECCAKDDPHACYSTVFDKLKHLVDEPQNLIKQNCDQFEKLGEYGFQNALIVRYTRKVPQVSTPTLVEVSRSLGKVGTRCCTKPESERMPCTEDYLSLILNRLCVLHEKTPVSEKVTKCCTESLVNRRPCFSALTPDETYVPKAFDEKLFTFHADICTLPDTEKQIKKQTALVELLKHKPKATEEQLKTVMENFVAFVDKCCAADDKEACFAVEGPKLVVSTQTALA
fibrinogen (Homo sapiens), one chain, as listed by the source, chain 2 of 3: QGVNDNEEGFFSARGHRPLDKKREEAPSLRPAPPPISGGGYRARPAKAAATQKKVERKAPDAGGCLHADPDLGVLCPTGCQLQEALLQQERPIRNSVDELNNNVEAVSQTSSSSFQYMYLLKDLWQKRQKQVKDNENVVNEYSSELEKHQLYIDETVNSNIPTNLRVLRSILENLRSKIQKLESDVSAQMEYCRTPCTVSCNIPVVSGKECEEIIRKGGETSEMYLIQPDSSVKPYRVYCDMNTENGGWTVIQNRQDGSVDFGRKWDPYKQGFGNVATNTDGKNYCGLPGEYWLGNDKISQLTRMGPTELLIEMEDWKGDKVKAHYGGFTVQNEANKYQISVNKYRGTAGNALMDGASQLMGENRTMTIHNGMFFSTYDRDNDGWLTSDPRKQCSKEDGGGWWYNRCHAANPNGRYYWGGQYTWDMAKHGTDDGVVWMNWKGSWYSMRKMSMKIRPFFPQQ
fibrinogen (Homo sapiens), one chain, as listed by the source, chain 3 of 3: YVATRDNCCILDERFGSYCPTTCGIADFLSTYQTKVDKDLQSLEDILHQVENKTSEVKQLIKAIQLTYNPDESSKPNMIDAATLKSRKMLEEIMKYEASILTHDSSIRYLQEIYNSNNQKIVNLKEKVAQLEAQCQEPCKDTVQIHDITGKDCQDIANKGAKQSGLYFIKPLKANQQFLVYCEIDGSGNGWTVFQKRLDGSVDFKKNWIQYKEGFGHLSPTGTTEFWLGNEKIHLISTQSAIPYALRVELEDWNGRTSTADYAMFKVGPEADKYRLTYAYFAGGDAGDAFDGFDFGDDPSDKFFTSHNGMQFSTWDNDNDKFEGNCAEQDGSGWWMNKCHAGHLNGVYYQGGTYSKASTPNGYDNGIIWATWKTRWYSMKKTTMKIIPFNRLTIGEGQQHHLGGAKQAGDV
fibrinogen (Homo sapiens), one chain, as listed by the source, chain 1 of 3: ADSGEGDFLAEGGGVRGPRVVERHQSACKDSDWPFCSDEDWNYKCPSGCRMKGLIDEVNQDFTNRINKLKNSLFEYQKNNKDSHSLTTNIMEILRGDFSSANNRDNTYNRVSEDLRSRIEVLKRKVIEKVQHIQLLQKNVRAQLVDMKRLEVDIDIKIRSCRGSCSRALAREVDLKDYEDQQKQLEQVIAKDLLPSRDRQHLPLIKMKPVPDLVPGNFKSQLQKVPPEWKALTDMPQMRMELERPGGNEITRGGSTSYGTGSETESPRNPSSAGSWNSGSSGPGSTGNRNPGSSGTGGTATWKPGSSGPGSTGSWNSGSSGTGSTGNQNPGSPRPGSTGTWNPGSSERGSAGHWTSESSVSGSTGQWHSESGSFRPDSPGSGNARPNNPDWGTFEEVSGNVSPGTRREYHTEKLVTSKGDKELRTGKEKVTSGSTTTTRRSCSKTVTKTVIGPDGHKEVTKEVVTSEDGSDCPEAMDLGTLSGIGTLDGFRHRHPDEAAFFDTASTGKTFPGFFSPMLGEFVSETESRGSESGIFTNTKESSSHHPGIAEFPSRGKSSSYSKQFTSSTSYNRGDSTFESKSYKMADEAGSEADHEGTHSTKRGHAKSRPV

In paper PMC6969062:

Experiments:
Experiment in all cases: aptamer-antibody sandwich chemiluminescence on streptavidin wells
Conditions in all cases: 1 ng/mL protein in artificial serum (PBS), read-out also needs anti-RBP4 antibody; Binding buffer 20 mM Tris-HCl pH 7.6, 100 mM NaCl, 2 mM MgCl2, 5 mM KCl, 1 mM CaCl2, 0.02% Tween-20; RBP4 1 h (temperature not stated); commercial protein; label: 5' biotin; single-stranded DNA
[1] = tested on: fibrinogen (Homo sapiens)
[2] = biological target: HSA (human serum albumin) (Homo sapiens) (UniProt P02768)
vaspin = biological target: T1, vaspin (UniProt Q8IW75)
T1 sequence (looked up, limits assumed): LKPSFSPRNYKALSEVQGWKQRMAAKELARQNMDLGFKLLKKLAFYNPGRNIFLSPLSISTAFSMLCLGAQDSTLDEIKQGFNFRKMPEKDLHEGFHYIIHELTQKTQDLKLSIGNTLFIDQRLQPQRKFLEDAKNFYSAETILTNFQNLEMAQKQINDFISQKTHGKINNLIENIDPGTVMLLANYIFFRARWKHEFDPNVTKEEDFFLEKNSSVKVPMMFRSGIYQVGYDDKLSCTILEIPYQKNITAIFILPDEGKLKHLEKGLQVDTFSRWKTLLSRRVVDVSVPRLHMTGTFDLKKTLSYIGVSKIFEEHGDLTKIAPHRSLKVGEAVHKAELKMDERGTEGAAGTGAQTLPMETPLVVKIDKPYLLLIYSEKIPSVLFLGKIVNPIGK

insulin = tested on: insulin
[3] = biological target: BSA (bovine serum albumin) (Bos taurus) (UniProt P02769)

Measured: binding result

TTTTTTTTTTATACCAGCTTATTCAATTACAGTAGTGAGGGGTCCGTCGTGGGGTAGTTGGGTCGTGGAGATAGTAAGTGCAATCT [RBA (RBP4 aptamer), biotin-T10]
binds more weakly: all assays above

For at least one entry, the source does not settle the construct or the ends of the probe. The comparison behind a weaker result is the experiment's own reference, which may not be listed here. For some assays here: Tags and fusion partners may be left off the protein sequences shown.
